# For at least one entry, the source does not settle the construct or the ends of the probe. At least one verdict was read from the data and is not stated in words by the source. Where a protein sequence is shown, tags need not be part of it.
# Molecular target: T1, Heparin-binding protein (HBP) (Homo sapiens) (UniProt P20160)
# T1 sequence (looked up, limits assumed): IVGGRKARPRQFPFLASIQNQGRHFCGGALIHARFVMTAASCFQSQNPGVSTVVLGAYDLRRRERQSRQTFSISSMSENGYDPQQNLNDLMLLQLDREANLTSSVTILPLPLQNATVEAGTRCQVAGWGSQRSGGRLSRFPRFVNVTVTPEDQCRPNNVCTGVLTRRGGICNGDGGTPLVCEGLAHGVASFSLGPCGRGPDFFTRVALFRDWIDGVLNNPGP
# Test: strand displacement (PAGE, Exo III/RCA fluorescence)
# Settings: HBP binds Apt-01(74) and releases C2-13; commercial protein
sequence,measurement,value
TTCAGCACTCCACGCATAGCTTCACCTACCGCAATCCGTTGCTCAGTGCTACCGCACCTATGCGTGCTACCGTG / CTTCACGGTAGCACGC [Apt-01(74)/C2-13],binding result,binds

# From article PMC11051826, “Screening and Application of DNA Aptamers for Heparin-Binding Protein”
